Assay results: PMC4104027
These are yes or no findings as the source states them, for the method shown. In cells and extracts the contact can be indirect. Here binding means that the protein was enriched with, or labelled near, the bait; the list need not be complete. Each block holds one molecule with its values, some of them ahead of it.

Protein sequences, listed by entry. Tags and fused reporters are not part of them.
UniProt Q9UNE7: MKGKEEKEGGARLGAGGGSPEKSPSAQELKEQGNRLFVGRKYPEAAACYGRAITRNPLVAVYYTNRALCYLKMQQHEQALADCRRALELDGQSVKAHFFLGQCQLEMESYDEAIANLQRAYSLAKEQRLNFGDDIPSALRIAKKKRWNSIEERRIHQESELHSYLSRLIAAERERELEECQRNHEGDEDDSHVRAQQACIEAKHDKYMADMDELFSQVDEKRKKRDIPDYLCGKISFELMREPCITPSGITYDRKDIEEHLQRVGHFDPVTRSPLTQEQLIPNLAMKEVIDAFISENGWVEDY
UniProt Q7Z6Z7: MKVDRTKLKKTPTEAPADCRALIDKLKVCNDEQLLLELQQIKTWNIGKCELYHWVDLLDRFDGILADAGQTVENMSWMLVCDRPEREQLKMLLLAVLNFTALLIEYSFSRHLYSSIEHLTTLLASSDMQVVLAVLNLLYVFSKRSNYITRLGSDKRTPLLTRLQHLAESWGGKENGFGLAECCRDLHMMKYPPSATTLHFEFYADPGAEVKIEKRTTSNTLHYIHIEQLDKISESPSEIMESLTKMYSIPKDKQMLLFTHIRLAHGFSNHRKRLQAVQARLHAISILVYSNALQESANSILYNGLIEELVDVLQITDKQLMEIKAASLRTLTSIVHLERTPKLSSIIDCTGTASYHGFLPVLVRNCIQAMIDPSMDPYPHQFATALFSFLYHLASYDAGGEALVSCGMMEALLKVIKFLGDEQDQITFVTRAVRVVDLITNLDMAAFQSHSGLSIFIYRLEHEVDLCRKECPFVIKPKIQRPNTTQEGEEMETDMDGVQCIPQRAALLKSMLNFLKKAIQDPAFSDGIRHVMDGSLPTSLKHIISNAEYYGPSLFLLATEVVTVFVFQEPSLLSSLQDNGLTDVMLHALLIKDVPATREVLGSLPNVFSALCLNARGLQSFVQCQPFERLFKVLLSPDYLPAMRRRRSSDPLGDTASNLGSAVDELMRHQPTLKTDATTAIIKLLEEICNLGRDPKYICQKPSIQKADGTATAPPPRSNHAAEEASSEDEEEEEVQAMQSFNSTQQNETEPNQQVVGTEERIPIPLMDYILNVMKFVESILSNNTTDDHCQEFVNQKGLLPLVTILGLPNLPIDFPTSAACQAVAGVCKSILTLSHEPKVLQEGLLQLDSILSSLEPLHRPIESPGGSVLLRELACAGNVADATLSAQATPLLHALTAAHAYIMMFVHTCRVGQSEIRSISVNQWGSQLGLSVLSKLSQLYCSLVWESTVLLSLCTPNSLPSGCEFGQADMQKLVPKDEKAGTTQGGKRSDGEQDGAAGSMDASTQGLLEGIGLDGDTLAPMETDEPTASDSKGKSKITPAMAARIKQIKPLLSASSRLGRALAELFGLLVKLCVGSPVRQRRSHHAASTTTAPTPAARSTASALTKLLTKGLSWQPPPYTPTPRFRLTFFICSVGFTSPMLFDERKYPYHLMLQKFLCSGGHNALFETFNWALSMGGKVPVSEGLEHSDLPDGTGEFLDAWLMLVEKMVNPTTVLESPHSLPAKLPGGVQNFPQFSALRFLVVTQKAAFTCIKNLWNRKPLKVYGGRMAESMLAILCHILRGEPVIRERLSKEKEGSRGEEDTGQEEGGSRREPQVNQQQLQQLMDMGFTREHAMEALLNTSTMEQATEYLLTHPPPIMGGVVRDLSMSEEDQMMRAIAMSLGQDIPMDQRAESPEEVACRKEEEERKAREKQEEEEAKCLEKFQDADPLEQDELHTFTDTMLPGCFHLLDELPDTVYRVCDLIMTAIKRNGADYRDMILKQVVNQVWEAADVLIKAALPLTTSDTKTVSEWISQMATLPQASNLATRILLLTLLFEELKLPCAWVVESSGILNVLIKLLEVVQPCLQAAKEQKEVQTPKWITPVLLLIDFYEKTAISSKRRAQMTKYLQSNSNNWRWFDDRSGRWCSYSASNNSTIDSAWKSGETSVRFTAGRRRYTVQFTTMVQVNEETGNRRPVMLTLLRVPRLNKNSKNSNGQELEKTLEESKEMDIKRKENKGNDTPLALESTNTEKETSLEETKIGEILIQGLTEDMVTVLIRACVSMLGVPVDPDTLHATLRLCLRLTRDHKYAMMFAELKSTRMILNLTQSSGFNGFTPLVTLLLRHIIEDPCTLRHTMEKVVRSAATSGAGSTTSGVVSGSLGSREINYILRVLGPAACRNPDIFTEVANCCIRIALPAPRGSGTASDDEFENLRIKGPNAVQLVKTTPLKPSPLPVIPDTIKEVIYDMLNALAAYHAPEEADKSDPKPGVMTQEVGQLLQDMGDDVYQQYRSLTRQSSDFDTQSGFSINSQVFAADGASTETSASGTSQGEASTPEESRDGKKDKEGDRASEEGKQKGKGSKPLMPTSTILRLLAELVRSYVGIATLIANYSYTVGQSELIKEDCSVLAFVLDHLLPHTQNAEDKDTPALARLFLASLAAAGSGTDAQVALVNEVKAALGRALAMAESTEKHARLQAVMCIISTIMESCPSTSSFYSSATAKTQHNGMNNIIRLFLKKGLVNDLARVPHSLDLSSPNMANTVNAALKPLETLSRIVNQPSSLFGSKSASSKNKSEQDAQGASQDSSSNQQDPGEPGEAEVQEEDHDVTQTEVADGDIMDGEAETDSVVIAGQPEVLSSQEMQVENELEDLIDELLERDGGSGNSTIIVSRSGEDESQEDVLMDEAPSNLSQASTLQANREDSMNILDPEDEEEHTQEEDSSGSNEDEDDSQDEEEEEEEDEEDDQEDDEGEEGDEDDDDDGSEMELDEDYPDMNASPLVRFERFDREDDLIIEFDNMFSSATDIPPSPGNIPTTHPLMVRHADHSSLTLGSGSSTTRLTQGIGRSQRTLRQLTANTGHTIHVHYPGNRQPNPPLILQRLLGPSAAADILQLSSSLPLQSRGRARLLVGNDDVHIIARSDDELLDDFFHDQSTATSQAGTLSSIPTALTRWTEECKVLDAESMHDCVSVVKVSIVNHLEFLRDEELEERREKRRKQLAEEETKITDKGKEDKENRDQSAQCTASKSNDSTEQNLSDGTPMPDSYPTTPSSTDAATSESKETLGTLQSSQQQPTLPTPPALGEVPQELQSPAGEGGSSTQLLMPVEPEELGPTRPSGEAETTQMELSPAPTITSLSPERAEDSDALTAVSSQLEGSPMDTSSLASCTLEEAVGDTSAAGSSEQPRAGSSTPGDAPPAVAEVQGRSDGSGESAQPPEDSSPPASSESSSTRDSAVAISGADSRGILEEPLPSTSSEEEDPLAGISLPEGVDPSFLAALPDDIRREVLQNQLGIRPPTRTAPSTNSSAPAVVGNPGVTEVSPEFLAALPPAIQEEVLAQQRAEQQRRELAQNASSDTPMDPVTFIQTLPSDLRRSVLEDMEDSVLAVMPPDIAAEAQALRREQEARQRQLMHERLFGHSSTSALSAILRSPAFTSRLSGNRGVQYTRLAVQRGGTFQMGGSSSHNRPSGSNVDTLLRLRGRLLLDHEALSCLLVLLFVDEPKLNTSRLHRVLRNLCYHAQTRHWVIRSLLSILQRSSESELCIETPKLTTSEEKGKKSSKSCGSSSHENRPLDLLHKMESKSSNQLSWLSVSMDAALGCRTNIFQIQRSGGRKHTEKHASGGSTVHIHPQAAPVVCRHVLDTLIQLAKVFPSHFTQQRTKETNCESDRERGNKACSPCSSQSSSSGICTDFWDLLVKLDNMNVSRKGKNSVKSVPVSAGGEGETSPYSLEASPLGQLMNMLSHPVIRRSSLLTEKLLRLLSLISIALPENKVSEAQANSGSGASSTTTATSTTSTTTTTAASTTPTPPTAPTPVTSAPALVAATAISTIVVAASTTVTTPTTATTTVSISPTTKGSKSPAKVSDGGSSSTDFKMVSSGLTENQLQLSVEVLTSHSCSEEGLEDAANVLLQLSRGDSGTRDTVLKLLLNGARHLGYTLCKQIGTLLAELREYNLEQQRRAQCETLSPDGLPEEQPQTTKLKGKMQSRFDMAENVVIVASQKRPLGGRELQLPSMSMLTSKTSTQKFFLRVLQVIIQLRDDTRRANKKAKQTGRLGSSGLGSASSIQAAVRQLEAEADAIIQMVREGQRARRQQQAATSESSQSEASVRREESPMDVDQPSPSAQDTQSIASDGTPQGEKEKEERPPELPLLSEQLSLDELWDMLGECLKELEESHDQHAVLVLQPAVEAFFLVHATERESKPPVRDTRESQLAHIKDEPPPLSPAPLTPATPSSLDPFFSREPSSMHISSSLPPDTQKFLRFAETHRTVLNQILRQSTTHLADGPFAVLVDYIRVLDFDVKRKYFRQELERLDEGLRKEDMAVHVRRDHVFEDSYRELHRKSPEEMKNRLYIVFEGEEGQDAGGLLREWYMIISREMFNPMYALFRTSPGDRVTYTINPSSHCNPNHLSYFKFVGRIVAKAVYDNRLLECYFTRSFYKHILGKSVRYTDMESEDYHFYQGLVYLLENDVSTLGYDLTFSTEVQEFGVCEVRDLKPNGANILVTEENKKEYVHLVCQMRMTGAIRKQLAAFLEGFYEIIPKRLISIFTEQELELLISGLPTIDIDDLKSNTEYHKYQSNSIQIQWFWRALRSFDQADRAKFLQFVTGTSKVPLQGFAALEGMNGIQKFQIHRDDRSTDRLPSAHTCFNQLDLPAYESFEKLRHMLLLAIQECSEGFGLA

Biological target: FLAG-tagged Bag6 (UniProt P46379)

binding: binds
Molecule: CHIP (from UniProt Q9UNE7 1-303) (enzyme)

binding: binds
Molecule: HUWE1 (from UniProt Q7Z6Z7 1-4374) (enzyme)

binding: binds
B1: RNF123 (enzyme, UniProt Q5XPI4 1-1314)
chain: MASKGAGMSFSRKSYRLTSDAEKSRVTGIVQEKLLNDYLNRIFSSSEHAPPAATSRKPLNFQNLPEHLDQLLQVDNEEEESQGQVEGRLGPSTVVLDHTGGFEGLLLVDDDLLGVIGHSNFGTIRSTTCVYKGKWLYEVLISSQGLMQIGWCTISCRFNQEEGVGDTHNSYAYDGNRVRKWNVTTTNYGKAWAAGDIVSCLIDLDDGTLSFCLNGVSLGTAFENLSRGLGMAYFPAISLSFKESVAFNFGSRPLRYPVAGYRPLQDPPSADLVRAQRLLGCFRAVLSVELDPVEGRLLDKESSKWRLRGQPTVLLTLAHIFHHFAPLLRKVYLVEAVLMSFLLGIVEKGTPTQAQSVVHQVLDLLWLFMEDYEVQDCLKQLMMSLLRLYRFSPIVPDLGLQIHYLRLTIAILRHEKSRKFLLSNVLFDVLRSVVFFYIKSPLRVEEAGLQELIPTTWWPHCSSREGKESTEMKEETAEERLRRRAYERGCQRLRKRIEVVEELQVQILKLLLDNKDDNGGEASRYIFLTKFRKFLQENASGRGNMPMLCPPEYMVCFLHRLISALRYYWDEYKASNPHASFSEEAYIPPQVFYNGKVDYFDLQRLGGLLSHLRKTLKDDLASKANIVIDPLELQSTAMDDLDEDEEPAPAMAQRPMQALAVGGPLPLPRPGWLSSPTLGRANRFLSTAAVSLMTPRRPLSTSEKVKVRTLSVEQRTREDIEGSHWNEGLLLGRPPEEPEQPLTENSLLEVLDGAVMMYNLSVHQQLGKMVGVSDDVNEYAMALRDTEDKLRRCPKRRKDILAELTKSQKVFSEKLDHLSRRLAWVHATVYSQEKMLDIYWLLRVCLRTIEHGDRTGSLFAFMPEFYLSVAINSYSALKNYFGPVHSMEELPGYEETLTRLAAILAKHFADARIVGTDIRDSLMQALASYVCYPHSLRAVERIPEEQRIAMVRNLLAPYEQRPWAQTNWILVRLWRGCGFGYRYTRLPHLLKTKLEDANLPSLQKPCPSTLLQQHMADLLQQGPDVAPSFLNSVLNQLNWAFSEFIGMIQEIQQAAERLERNFVDSRQLKVCATCFDLSVSLLRVLEMTITLVPEIFLDWTRPTSEMLLRRLAQLLNQVLNRVTAERNLFDRVVTLRLPGLESVDHYPILVAVTGILVQLLVRGPASEREQATSVLLADPCFQLRSICYLLGQPEPPAPGTALPAPDRKRFSLQSYADYISADELAQVEQMLAHLTSASAQAAAASLPTSEEDLCPICYAHPISAVFQPCGHKSCKACINQHLMNNKDCFFCKTTIVSVEDWEKGANTSTTSSAA
